Results as given in US12083124B2 (Incyte Corporation, priority 2019, dated 2024).
Some entries share one result that the patent states for a list of compounds.

Chains of the proteins cited; added tags and fusions are not shown. Residues count along the entry.
UniProt P22607, 23-806: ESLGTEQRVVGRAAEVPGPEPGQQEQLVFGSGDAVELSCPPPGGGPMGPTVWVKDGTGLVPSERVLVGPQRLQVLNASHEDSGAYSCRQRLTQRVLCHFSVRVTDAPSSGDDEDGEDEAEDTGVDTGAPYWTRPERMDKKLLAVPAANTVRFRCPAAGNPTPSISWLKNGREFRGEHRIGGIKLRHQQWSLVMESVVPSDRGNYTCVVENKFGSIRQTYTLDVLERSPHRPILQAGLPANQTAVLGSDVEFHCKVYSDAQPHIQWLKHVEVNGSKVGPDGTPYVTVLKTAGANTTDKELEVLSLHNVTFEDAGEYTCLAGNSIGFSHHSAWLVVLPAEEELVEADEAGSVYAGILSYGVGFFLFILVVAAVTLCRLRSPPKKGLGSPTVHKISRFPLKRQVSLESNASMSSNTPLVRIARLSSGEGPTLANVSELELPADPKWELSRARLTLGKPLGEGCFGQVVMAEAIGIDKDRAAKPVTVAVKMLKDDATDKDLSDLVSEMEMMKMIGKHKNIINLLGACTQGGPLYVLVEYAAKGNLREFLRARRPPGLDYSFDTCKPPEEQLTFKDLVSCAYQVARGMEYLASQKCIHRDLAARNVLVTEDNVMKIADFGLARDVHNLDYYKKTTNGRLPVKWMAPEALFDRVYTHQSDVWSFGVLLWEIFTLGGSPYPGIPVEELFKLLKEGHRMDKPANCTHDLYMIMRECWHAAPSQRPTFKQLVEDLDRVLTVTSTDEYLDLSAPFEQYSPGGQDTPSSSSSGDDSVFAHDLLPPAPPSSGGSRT

Biological target: wild-type un-phosphorylated FGFR3 (Homo sapiens, UniProt P22607)
Assay: FGFR Enzymatic Assay (FRET peptide phosphorylation), FGFR3
Conditions: in some embodiments

Structure (SMILES)	inhibitory activity for FGFR3 over the inhibitory activity of the compounds of US2018/0072718 for FGFR3
COc1cc2[nH]nc(-c3cnn(Cc4ncnn4C)c3)c2nc1-c1cccc(C)c1C [Example 3, 5-(2,3-Dimethylphenyl)-6-methoxy-3-(1-((1-methyl-1H-1,2,4-triazol-5-yl)methyl)-1H-pyrazol-4-yl)-1H-pyrazolo[4,3-b]pyridine]	≥ 10 fold
COc1cc2[nH]nc(-c3cnn(C)c3)c2nc1-c1cccc2c1OCC2 [Example 4, 5-(2,3-Dihydrobenzofuran-7-yl)-6-methoxy-3-(1-methyl-1H-pyrazol-4-yl)-1H-pyrazolo[4,3-b]pyridine]	≥ 10 fold
COc1cc2[nH]nc(-c3cnn(C)c3)c2nc1-c1cccc(CC#N)c1C [Example 5, 2-(3-(6-Methoxy-3-(1-methyl-1H-pyrazol-4-yl)-1H-pyrazolo[4,3-b]pyridin-5-yl)-2-methylphenyl)acetonitrile]	≥ 10 fold
CC(=O)N1CCN(c2ccc(-c3n[nH]c4cc(OC(F)F)c(-c5cccc(C)c5C)nc34)cn2)CC1 [Example 6, 1-(4-(5-(6-(Difluoromethoxy)-5-(2,3-dimethylphenyl)-1H-pyrazolo[4,3-b]pyridin-3-yl)pyridin-2-yl)piperazin-1-yl)ethan-1-one]	≥ 10 fold
COc1cc2[nH]nc(-c3cnn(C)c3)c2nc1-c1cccc2c1CCC2C#N (centres unmarked) [Example 9, 4-(6-Methoxy-3-(1-methyl-1H-pyrazol-4-yl)-1H-pyrazolo[4,3-b]pyridin-5-yl)-2,3-dihydro-1H-indene-1-carbonitrile]	≥ 10 fold
COc1cc2[nH]nc(-c3cnn(C)c3)c2nc1-c1cccc2c1C[C@H](F)[C@@H]2O [Example 13, 2-Fluoro-4-(6-methoxy-3-(1-methyl-1H-pyrazol-4-yl)-1H-pyrazolo[4,3-b]pyridin-5-yl)-2,3-dihydro-1H-inden-1-ol]	≥ 10 fold
COc1cc2[nH]nc(-c3cnn(C4CCNC4)c3)c2nc1-c1cccc2c1CCC2 (centres unmarked) [Example 14, 5-(2,3-Dihydro-1H-inden-4-yl)-6-methoxy-3-(1-(pyrrolidin-3-yl)-1H-pyrazol-4-yl)-1H-pyrazolo[4,3-b]pyridine]	≥ 10 fold
CCN1CCC(n2cc(-c3n[nH]c4cc(OC)c(-c5cccc6c5CCC6)nc34)cn2)C1 (centres unmarked) [Example 15, 5-(2,3-Dihydro-1H-inden-4-yl)-3-(1-(1-ethylpyrrolidin-3-yl)-1H-pyrazol-4-yl)-6-methoxy-1H-pyrazolo[4,3-b]pyridine]	≥ 10 fold
COc1cc2[nH]nc(-c3cnn(C4CC(C#N)C4)c3)c2nc1-c1cccc2c1CCC2 (centres unmarked) [Example 16, 3-(4-(5-(2,3-Dihydro-1H-inden-4-yl)-6-methoxy-1H-pyrazolo[4,3-b]pyridin-3-yl)-1H-pyrazol-1-yl)cyclobutanecarbonitrile]	≥ 10 fold
COc1cc2[nH]nc(-c3cnn(C4CN(C)C4)c3)c2nc1-c1cccc2c1CCC2 [Example 17, 5-(2,3-Dihydro-1H-inden-4-yl)-6-methoxy-3-(1-(1-methylazetidin-3-yl)-1H-pyrazol-4-yl)-1H-pyrazolo[4,3-b]pyridine]	≥ 10 fold
CCN1CC(n2cc(-c3n[nH]c4cc(OC)c(-c5cccc6c5CCC6)nc34)cn2)C1 [Example 18, 5-(2,3-Dihydro-1H-inden-4-yl)-3-(1-(1-ethylazetidin-3-yl)-1H-pyrazol-4-yl)-6-methoxy-1H-pyrazolo[4,3-b]pyridine]	≥ 10 fold
COc1cc2[nH]nc(-c3cnn(C4CCN(C(=O)N(C)C)CC4)c3)c2nc1-c1cccc2c1CCC2 [Example 19, 4-(4-(5-(2,3-Dihydro-1H-inden-4-yl)-6-methoxy-1H-pyrazolo[4,3-b]pyridin-3-yl)-1H-pyrazol-1-yl)-N,N-dimethylpiperidine-1-carboxamide]	≥ 10 fold
COC(=O)N1CCC(n2cc(-c3n[nH]c4cc(OC)c(-c5cccc6c5CCC6)nc34)cn2)CC1 [Example 20, Methyl 4-(4-(5-(2,3-dihydro-1H-inden-4-yl)-6-methoxy-1H-pyrazolo[4,3-b]pyridin-3-yl)-1H-pyrazol-1-yl)piperidine-1-carboxylate]	≥ 10 fold
COC(=O)N1CC(n2cc(-c3n[nH]c4cc(OC)c(-c5cccc6c5CCC6)nc34)cn2)C1 [Example 21, Methyl 3-(4-(5-(2,3-dihydro-1H-inden-4-yl)-6-methoxy-1H-pyrazolo[4,3-b]pyridin-3-yl)-1H-pyrazol-1-yl)azetidine-1-carboxylate]	≥ 10 fold
COc1cc2[nH]nc(-c3cnn(C4CN(C(C)=O)C4)c3)c2nc1-c1cccc2c1CCC2 [Example 22, 1-(3-(4-(5-(2,3-Dihydro-1H-inden-4-yl)-6-methoxy-1H-pyrazolo[4,3-b]pyridin-3-yl)-1H-pyrazol-1-yl)azetidin-1-yl)ethan-1-one]	≥ 10 fold
COc1cc2[nH]nc(-c3cnn(C4CN(S(C)(=O)=O)C4)c3)c2nc1-c1cccc2c1CCC2 [Example 23, 5-(2,3-Dihydro-1H-inden-4-yl)-6-methoxy-3-(1-(1-(methylsulfonyl)azetidin-3-yl)-1H-pyrazol-4-yl)-1H-pyrazolo[4,3-b]pyridine]	≥ 10 fold
COc1cc2[nH]nc(-c3cnn(C4CN(C(=O)N(C)C)C4)c3)c2nc1-c1cccc2c1CCC2 [Example 24, 3-(4-(5-(2,3-Dihydro-1H-inden-4-yl)-6-methoxy-1H-pyrazolo[4,3-b]pyridin-3-yl)-1H-pyrazol-1-yl)-N,N-dimethylazetidine-1-carboxamide]	≥ 10 fold

Continued, values first:

inhibitory activity for FGFR3 over the inhibitory activity of the compounds of US2018/0072718 for FGFR3	Structure (SMILES)
≥ 10 fold	COc1cc2[nH]nc(-c3cnn(C4CN(C(=O)C5CC5)C4)c3)c2nc1-c1cccc2c1CCC2 [Example 25, Cyclopropyl(3-(4-(5-(2,3-dihydro-1H-inden-4-yl)-6-methoxy-1H-pyrazolo[4,3-b]pyridin-3-yl)-1H-pyrazol-1-yl)azetidin-1-yl)methanone]
≥ 10 fold	CCOc1cc2[nH]nc(-c3cnn(C)c3)c2nc1-c1cccc2c1CCC2 [Example 26, 5-(2,3-Dihydro-1H-inden-4-yl)-6-ethoxy-3-(1-methyl-1H-pyrazol-4-yl)-1H-pyrazolo[4,3-b]pyridine]
≥ 10 fold	COc1cc2[nH]nc(-c3cnn(CCN4CCOCC4)c3)c2nc1-c1cccc2c1CCC2 [Example 28, 4-(2-(4-(5-(2,3-Dihydro-1H-inden-4-yl)-6-methoxy-1H-pyrazolo[4,3-b]pyridin-3-yl)-1H-pyrazol-1-yl)ethyl)morpholine]
≥ 10 fold	COc1cc2[nH]nc(-c3cnn(C4CC4)c3)c2nc1-c1cccc2c1CCC2 [Example 29, 3-(1-Cyclopropyl-1H-pyrazol-4-yl)-5-(2,3-dihydro-1H-inden-4-yl)-6-methoxy-1H-pyrazolo[4,3-b]pyridine]
≥ 10 fold	COc1cc2[nH]nc(-c3cnn(CCC#N)c3)c2nc1-c1cccc2c1CCC2 [Example 30, 3-(4-(5-(2,3-Dihydro-1H-inden-4-yl)-6-methoxy-1H-pyrazolo[4,3-b]pyridin-3-yl)-1H-pyrazol-1-yl)propanenitrile]
≥ 10 fold	COc1cc2[nH]nc(-c3cnn(CCO)c3)c2nc1-c1cccc2c1CCC2 [Example 31, 2-(4-(5-(2,3-Dihydro-1H-inden-4-yl)-6-methoxy-1H-pyrazolo[4,3-b]pyridin-3-yl)-1H-pyrazol-1-yl)ethan-1-ol]
≥ 10 fold	COc1cc2[nH]nc(-c3cnn(-c4ccncc4)c3)c2nc1-c1cccc2c1CCC2 [Example 32, 5-(2,3-Dihydro-1H-inden-4-yl)-6-methoxy-3-(1-(pyridin-4-yl)-1H-pyrazol-4-yl)-1H-pyrazolo[4,3-b]pyridine]
≥ 10 fold	COc1cc2[nH]nc(-c3cnn([C@H]4CC[C@H](O)CC4)c3)c2nc1-c1cccc2c1CCC2 [Example 33, (trans)-4-(4-(5-(2,3-Dihydro-1H-inden-4-yl)-6-methoxy-1H-pyrazolo[4,3-b]pyridin-3-yl)-1H-pyrazol-1-yl)cyclohexan-1-ol]
≥ 10 fold	CNc1cc2[nH]nc(-c3cnn(C)c3)c2nc1-c1cccc(C)c1C [Example 34, 5-(2,3-Dimethylphenyl)-N-methyl-3-(1-methyl-1H-pyrazol-4-yl)-1H-pyrazolo[4,3-b]pyridin-6-amine]
≥ 10 fold	Cn1cc(-c2n[nH]c3cc(C(F)F)c(-c4cccc5c4CCC5)nc23)cn1 [Example 35, 6-(Difluoromethyl)-5-(2,3-dihydro-1H-inden-4-yl)-3-(1-methyl-1H-pyrazol-4-yl)-1H-pyrazolo[4,3-b]pyridine]
≥ 10 fold	Cn1cc(-c2n[nH]c3cc(CO)c(-c4cccc5c4CCC5)nc23)cn1 [Example 36, (5-(2,3-Dihydro-1H-inden-4-yl)-3-(1-methyl-1H-pyrazol-4-yl)-1H-pyrazolo[4,3-b]pyridin-6-yl)methanol]
≥ 10 fold	CNc1cc2[nH]nc(-c3cnn(C)c3)c2nc1-c1cccc2c1CCC2 [Example 37, 5-(2,3-Dihydro-1H-inden-4-yl)-N-methyl-3-(1-methyl-1H-pyrazol-4-yl)-1H-pyrazolo[4,3-b]pyridin-6-amine]
